Experimental data: the supplement of paper PMC10849652
This is one part of the list.

Chains of the proteins cited; added tags and fusions are not shown. Lines headed by an entry give the natural chain unless they say otherwise; changes in a name come on top.
UniProt Q5VZM2, whole entry, looked up: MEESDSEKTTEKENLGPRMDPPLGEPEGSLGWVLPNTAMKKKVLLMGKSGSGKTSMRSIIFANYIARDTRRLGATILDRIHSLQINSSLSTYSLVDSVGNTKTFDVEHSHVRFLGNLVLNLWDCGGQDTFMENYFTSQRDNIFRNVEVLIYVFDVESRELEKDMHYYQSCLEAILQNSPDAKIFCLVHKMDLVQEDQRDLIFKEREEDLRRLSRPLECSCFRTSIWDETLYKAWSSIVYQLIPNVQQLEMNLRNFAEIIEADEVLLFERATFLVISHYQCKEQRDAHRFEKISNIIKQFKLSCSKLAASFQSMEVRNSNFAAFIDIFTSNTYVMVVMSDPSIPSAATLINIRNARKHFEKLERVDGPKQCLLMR
UniProt Q9Y265, whole entry, looked up: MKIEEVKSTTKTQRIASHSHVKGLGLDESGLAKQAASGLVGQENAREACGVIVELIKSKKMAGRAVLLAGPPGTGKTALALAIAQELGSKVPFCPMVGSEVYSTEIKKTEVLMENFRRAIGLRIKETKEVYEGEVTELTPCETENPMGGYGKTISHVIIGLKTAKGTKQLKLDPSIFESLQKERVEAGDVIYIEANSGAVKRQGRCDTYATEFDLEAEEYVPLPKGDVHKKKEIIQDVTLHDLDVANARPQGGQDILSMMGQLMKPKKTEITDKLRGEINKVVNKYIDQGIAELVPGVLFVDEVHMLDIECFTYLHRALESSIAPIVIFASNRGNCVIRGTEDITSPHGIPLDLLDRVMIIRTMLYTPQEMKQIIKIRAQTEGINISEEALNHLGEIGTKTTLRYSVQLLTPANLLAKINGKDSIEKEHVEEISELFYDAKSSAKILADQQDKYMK
UniProt P56182: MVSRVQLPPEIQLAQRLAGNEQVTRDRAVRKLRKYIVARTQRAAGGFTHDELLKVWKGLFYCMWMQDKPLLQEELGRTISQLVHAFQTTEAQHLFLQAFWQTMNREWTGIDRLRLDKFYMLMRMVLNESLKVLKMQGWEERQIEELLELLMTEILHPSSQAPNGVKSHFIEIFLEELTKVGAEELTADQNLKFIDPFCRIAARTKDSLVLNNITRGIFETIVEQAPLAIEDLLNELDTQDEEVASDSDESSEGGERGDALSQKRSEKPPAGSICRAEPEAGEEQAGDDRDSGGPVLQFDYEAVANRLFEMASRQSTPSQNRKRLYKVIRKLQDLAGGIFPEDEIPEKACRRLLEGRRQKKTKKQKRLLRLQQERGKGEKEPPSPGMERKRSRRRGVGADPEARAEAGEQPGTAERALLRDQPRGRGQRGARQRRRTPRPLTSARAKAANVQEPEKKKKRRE
UniProt Q9Y3I0: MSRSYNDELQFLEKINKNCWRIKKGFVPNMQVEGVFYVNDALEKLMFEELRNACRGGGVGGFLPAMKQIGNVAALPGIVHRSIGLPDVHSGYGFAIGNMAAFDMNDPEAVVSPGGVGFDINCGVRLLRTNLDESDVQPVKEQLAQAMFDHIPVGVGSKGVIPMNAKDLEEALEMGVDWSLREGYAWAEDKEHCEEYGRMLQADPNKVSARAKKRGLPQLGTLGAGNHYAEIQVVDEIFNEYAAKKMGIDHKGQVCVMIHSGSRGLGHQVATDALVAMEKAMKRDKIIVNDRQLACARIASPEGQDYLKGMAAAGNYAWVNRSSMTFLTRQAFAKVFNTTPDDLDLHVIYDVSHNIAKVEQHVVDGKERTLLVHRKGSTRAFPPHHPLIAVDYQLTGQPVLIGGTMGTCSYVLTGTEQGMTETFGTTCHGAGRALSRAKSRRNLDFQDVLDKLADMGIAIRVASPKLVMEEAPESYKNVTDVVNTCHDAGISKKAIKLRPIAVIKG
UniProt O95197: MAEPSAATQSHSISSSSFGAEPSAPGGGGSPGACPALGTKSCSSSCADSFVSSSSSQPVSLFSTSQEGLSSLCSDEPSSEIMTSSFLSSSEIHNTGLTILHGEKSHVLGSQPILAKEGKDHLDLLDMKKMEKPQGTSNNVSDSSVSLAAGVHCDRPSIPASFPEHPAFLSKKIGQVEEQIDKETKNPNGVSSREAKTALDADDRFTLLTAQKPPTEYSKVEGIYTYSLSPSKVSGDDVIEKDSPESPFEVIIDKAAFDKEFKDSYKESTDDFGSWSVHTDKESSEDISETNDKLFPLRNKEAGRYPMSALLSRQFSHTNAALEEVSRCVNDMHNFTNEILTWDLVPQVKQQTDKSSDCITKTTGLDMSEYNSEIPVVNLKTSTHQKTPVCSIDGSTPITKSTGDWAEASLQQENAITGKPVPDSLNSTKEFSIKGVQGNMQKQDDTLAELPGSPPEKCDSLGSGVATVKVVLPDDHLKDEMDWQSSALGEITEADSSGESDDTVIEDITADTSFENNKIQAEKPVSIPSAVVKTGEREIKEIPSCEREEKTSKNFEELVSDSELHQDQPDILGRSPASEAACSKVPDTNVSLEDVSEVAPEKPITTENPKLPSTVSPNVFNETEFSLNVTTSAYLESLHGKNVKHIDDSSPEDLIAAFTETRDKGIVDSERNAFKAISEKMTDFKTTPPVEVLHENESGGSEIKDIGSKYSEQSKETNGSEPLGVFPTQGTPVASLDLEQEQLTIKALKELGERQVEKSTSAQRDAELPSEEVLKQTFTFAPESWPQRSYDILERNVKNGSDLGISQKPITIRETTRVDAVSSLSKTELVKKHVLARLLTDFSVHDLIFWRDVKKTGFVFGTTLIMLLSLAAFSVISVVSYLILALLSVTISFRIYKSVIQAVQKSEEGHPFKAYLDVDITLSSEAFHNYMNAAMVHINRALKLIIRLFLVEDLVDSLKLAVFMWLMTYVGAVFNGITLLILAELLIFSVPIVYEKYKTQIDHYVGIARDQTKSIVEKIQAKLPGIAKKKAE
UniProt Q9NQC3: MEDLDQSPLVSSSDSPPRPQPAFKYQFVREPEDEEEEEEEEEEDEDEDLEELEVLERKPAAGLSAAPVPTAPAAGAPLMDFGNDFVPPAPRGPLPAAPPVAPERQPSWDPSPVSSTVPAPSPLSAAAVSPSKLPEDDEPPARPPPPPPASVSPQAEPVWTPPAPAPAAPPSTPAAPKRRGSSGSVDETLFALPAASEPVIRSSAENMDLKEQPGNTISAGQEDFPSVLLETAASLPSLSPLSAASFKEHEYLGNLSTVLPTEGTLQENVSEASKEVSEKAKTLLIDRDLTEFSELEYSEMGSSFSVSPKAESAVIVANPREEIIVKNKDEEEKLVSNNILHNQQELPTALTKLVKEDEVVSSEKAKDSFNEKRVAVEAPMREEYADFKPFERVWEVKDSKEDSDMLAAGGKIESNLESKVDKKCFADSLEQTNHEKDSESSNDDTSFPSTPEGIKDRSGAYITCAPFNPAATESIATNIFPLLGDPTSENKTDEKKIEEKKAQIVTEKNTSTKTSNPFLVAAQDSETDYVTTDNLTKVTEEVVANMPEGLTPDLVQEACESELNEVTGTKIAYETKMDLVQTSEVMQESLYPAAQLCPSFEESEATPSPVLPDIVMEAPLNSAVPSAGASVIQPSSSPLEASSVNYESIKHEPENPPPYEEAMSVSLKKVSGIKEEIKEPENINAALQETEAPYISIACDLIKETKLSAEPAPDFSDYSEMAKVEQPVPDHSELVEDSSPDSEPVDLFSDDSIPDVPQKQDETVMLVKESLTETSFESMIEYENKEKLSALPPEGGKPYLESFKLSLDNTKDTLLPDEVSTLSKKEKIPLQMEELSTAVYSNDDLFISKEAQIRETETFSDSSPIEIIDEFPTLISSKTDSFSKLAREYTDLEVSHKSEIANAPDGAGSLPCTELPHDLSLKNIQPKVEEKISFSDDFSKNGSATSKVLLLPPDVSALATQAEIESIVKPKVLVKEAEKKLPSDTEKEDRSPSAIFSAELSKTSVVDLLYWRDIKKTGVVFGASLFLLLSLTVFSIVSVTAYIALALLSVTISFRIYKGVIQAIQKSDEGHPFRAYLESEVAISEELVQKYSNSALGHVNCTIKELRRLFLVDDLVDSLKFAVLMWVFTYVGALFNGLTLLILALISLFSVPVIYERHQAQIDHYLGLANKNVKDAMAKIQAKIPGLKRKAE
UniProt Q9H446: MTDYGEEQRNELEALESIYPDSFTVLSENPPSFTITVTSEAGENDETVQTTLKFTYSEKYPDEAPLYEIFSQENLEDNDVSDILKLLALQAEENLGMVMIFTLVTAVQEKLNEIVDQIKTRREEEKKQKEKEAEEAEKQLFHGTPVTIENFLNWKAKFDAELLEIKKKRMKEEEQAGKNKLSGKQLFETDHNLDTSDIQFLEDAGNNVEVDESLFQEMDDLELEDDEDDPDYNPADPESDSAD

What was measured:
Test in all cases: log2 fold change, soluble protein after heating vs DMSO (PISA); higher = thermal stabilisation; K562 lysate, 10 uM; active = over 0.2 and 3.5 SD of the protein, either way, in both replicates (recomputed)
[1] = compound: CS(=O)(=O)CCNCc1ccc(-c2ccc3ncnc(Nc4ccc(OCc5cccc(F)c5)c(Cl)c4)c3c2)o1 [lapatinib]
Summary of the method: (§1)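 Pellets of K562 cells were dounce-homogenised in PBS pH 7.4 with 1 mM MgCl2, and the crude extract was held at 1 mg/mL protein for a 30 min treatment with 10 μM compound. Aliquots were heated for 3 min over 48°C-58°C and pooled before NP-40 was added to 0.5% at 4°C. The supernatant from 21,000xg for 90 min was quantified by TMTpro 16plex LC-MS/MS with channel sums equalised. Values are reported from duplicates as log-two fold change in thermal stability relative to solvent controls.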

[2] = compound: CS(=O)(=O)N1CCN(Cc2cc3nc(-c4cccc5[nH]ncc45)nc(N4CCOCC4)c3s2)CC1 [pictilisib]
Summary of the method: as §1

[3] = compound: C[C@@H](Oc1cc(-c2cnn(C3CCNCC3)c2)cnc1N)c1c(Cl)ccc(F)c1Cl [crizotinib]
Summary of the method: as §1

[4] = compound: C[C@H](C1=CC=C(C=C1)C(=O)NC2=C3C=CNC3=NC=C2)N
Summary of the method: as §1

[5] = compound: C[C@H](Nc1ncnc2nc[nH]c12)c1cc2cccc(Cl)c2c(=O)n1-c1ccccc1 [duvelisib]
Summary of the method: as §1

[6] = compound: Cc1cc(Nc2cc(CN3CCOCC3)c3nc(C)c(Cc4ccc(Cl)cc4F)n3n2)n[nH]1 [gandotinib]
Summary of the method: as §1

[7] = compound: Cc1cc(Nc2cc(N3CCN(C)CC3)nc(Sc3ccc(NC(=O)C4CC4)cc3)n2)n[nH]1 [tozasertib]
Summary of the method: as §1

[8] = compound: Cc1ccc(-n2nc(C(C)(C)C)cc2NC(=O)Nc2ccc(OCCN3CCOCC3)c3ccccc23)cc1 [doramapimod]
Summary of the method: as §1

[9] = compound: Cc1ccc(NC(=O)c2ccc(CN3CC[C@H](N(C)C)C3)c(C(F)(F)F)c2)cc1Nc1nccc(-c2cncnc2)n1 [bafetinib]
Summary of the method: as §1

[10] = compound: Cc1cccc(CC(=O)N2CCc3c2ccc(-c2cn(C)c4ncnc(N)c24)c3F)n1
Summary of the method: as §1

[11] = compound: Cc1cn(-c2cc(NC(=O)c3ccc(C)c(Nc4nccc(-c5cccnc5)n4)c3)cc(C(F)(F)F)c2)cn1 [nilotinib]
Summary of the method: as §1

[12] = compound: Cc1nc(Nc2n[nH]c3c2CN(C(=O)N[C@H](CN(C)C)c2ccccc2)C3(C)C)c2sccc2n1
Summary of the method: as §1

[13] = compound: Cc1nc(Nc2ncc(C(=O)Nc3c(C)cccc3Cl)s2)cc(N2CCN(CCO)CC2)n1 [dasatinib]
Summary of the method: as §1

[14] = compound: Cc1ncc(-c2ccnc(Nc3ccc(S(C)(=O)=O)cc3)n2)n1C(C)C
Summary of the method: as §1

[15] = compound: Cn1cc(-c2ccc3c(c2)CCN3C(=O)Cc2cccc(C(F)(F)F)c2)c2c(N)ncnc21
Summary of the method: as §1

[16] = compound: Cn1cc(CNCC2CCN(c3ncc(C(=O)NO)cn3)CC2)c2ccccc21 [quisinostat]
Summary of the method: as §1

[17] = compound: Cn1cncc1[C@@](N)(c1ccc(Cl)cc1)c1ccc2c(c1)c(-c1cccc(Cl)c1)cc(=O)n2C [tipifarnib]
Summary of the method: as §1

[18] = compound: NC(=O)Nc1cc(-c2cccc(F)c2)sc1C(=O)N[C@H]1CCCNC1
Summary of the method: as §1

[19] = compound: NC(=O)c1cnc(N[C@@H]2CCCC[C@@H]2N)nc1Nc1cccc(-n2nccn2)c1
Summary of the method: as §1

[20] = compound: NC1(c2ccc(-c3nc4ccn5c(=O)[nH]nc5c4cc3-c3ccccc3)cc2)CCC1
Summary of the method: as §1

Measured: log2 fold change

RRAGB (UniProt Q5VZM2)
inactive: [1] 0.03 | [2] -0.009 | [3] 0.004 | [4] -0.097 | [5] 0.01 | [6] 0.05 | [7] -0.017 | [8] -0.036 | [9] -0.013 | [10] 0.042 | [11] -0.018 | [12] 0.025 | [13] 0.015 | [14] 0 | [15] 0.016 | [16] 0.001 | [17] 0.025 | [18] -0.011 | [19] -0.025 | [20] 0.021

RUVBL1 (UniProt Q9Y265)
inactive: [1] -0.024 | [2] -0.004 | [3] 0.036 | [4] -0.01 | [5] 0.002 | [6] 0.016 | [7] -0.014 | [8] -0.038 | [9] 0.049 | [10] -0.012 | [11] 0 | [12] 0 | [13] 0.007 | [14] 0.001 | [15] 0.004 | [16] 0.067 | [17] -0.002 | [18] -0.003 | [19] 0.001 | [20] 0.007

RPS29 (UniProt P62273)
active: [4] 0.793
inactive: [1] -0.024 | [2] 0.03 | [3] 0.054 | [5] -0.02 | [6] -0.202 | [7] -0.128 | [8] -0.105 | [9] 0.205 | [10] -0.315 | [11] 0.117 | [12] 0.072 | [13] 0.22 | [14] 0.061 | [15] 0.112 | [16] 0.361 | [17] 0.094 | [18] -0.116 | [19] -0.024 | [20] -0.068

RPL7A (UniProt P62424)
inactive: [1] -0.016 | [2] 0.007 | [3] 0.037 | [4] 0.135 | [5] 0.037 | [6] -0.047 | [7] -0.03 | [8] -0.069 | [9] 0.051 | [10] -0.039 | [11] 0.023 | [12] 0.006 | [13] 0.018 | [14] 0.014 | [15] -0.031 | [16] 0.102 | [17] 0.031 | [18] -0.043 | [19] -0.016 | [20] 0.011

RRP1 (UniProt P56182)
inactive: [1] -0.02 | [2] -0.038 | [3] 0.026 | [4] 0.11 | [5] 0.048 | [6] -0.155 | [7] -0.032 | [8] -0.035 | [9] -0.178 | [10] -0.045 | [11] -0.016 | [12] 0.033 | [13] -0.087 | [14] -0.021 | [15] -0.041 | [16] 0.02 | [17] -0.017 | [18] -0.01 | [19] -0.023 | [20] 0.001

RTCB (UniProt Q9Y3I0)
inactive: [1] -0.007 | [2] 0.017 | [3] 0.018 | [4] -0.019 | [5] 0.009 | [6] -0.022 | [7] 0.017 | [8] 0.028 | [9] -0.044 | [10] -0.03 | [11] -0.027 | [12] -0.005 | [13] -0.009 | [14] -0.029 | [15] 0.011 | [16] 0.04 | [17] 0.011 | [18] -0.009 | [19] 0.007 | [20] 0.021

RPL39P5 (UniProt Q59GN2)
inactive: [1] -0.008 | [2] -0.016 | [3] 0.081 | [4] 0.012 | [5] 0.028 | [6] 0.031 | [7] -0.049 | [8] -0.024 | [9] 0.09 | [10] 0.015 | [11] -0.053 | [12] 0.011 | [13] 0.054 | [14] -0.051 | [15] 0 | [16] 0.023 | [17] 0 | [18] 0.032 | [19] -0.026 | [20] -0.01

RTN3 isoform 5 (UniProt O95197)
inactive: [1] -0.109 | [2] -0.065 | [3] -0.023 | [4] -0.039 | [5] 0.008 | [6] 0.077 | [7] -0.082 | [8] -0.051 | [9] -0.124 | [10] -0.009 | [11] -0.031 | [12] -0.038 | [13] -0.115 | [14] 0.09 | [15] -0.024 | [16] -0.046 | [17] -0.054 | [18] -0.09 | [19] -0.035 | [20] 0.009

Two successive entries from above:
RUVBL1 (UniProt Q9Y265)
inactive: [1] -0.024 | [2] -0.004 | [3] 0.036 | [4] -0.01 | [5] 0.002 | [6] 0.016 | [7] -0.014 | [8] -0.038 | [9] 0.049 | [10] -0.012 | [11] 0 | [12] 0 | [13] 0.007 | [14] 0.001 | [15] 0.004 | [16] 0.067 | [17] -0.002 | [18] -0.003 | [19] 0.001 | [20] 0.007

RPS29 (UniProt P62273)
active: [4] 0.793
inactive: [1] -0.024 | [2] 0.03 | [3] 0.054 | [5] -0.02 | [6] -0.202 | [7] -0.128 | [8] -0.105 | [9] 0.205 | [10] -0.315 | [11] 0.117 | [12] 0.072 | [13] 0.22 | [14] 0.061 | [15] 0.112 | [16] 0.361 | [17] 0.094 | [18] -0.116 | [19] -0.024 | [20] -0.068

The list continues.

RTN4 isoform 2 (UniProt Q9NQC3)
inactive: [1] -0.002 | [2] 0.008 | [3] -0.053 | [4] 0.009 | [5] -0.079 | [6] 0.103 | [7] 0.011 | [8] -0.024 | [9] -0.156 | [10] 0.125 | [11] 0.017 | [12] -0.069 | [13] 0.063 | [14] -0.037 | [15] -0.005 | [16] -0.081 | [17] 0.081 | [18] -0.001 | [19] -0.081 | [20] -0.173

RPS7 (UniProt P62081)
inactive: [1] 0.025 | [2] 0.057 | [3] 0.055 | [4] 0.207 | [5] 0.019 | [6] -0.089 | [7] -0.027 | [8] -0.089 | [9] 0.092 | [10] -0.116 | [11] 0.014 | [12] 0.011 | [13] 0.015 | [14] 0.028 | [15] 0.012 | [16] 0.117 | [17] -0.01 | [18] -0.01 | [19] -0.021 | [20] -0.008

RWDD1 (UniProt Q9H446)
inactive: [1] 0.026 | [2] 0.01 | [3] 0.071 | [4] 0.069 | [5] 0.006 | [6] -0.016 | [7] 0.036 | [8] -0.11 | [9] -0.025 | [10] -0.059 | [11] -0.062 | [12] 0.012 | [13] 0.045 | [14] 0 | [15] 0.015 | [16] 0.157 | [17] -0.001 | [18] -0.006 | [19] 0.003 | [20] -0.006

RTN4 isoform 5 (UniProt Q9NQC3)
inactive: [1] 0.029 | [2] 0.001 | [3] -0.117 | [4] 0.044 | [5] 0.011 | [6] 0.176 | [7] -0.025 | [8] 0.009 | [9] -0.067 | [10] 0.039 | [11] 0.047 | [12] -0.009 | [13] -0.137 | [14] -0.093 | [15] -0.043 | [16] 0.173 | [17] -0.014 | [18] 0.056 | [19] 0.016 | [20] 0.013

RPL37A (UniProt P61513)
inactive: [1] -0.012 | [2] -0.01 | [3] -0.011 | [5] -0.088 | [6] -0.131 | [7] -0.087 | [8] -0.044 | [9] 0.02 | [10] -0.2 | [11] 0.041 | [12] 0.011 | [13] 0.095 | [14] 0.067 | [15] 0.032 | [16] 0.139 | [17] 0.008 | [18] -0.028 | [19] -0.013 | [20] -0.021
active: [4] 0.312

RPS19 (UniProt P39019)
inactive: [1] -0.011 | [2] -0.001 | [3] 0.033 | [4] 0.049 | [5] 0.006 | [6] -0.046 | [7] 0.002 | [8] -0.015 | [9] 0.001 | [10] -0.069 | [11] 0 | [12] -0.028 | [13] 0.001 | [14] -0.036 | [15] -0.027 | [16] 0.026 | [17] 0.013 | [18] -0.009 | [19] -0.016 | [20] 0.027

RPS10 (UniProt P46783)
inactive: [1] -0.016 | [2] 0.019 | [3] 0.014 | [4] 0.034 | [5] 0.019 | [6] -0.044 | [7] 0.004 | [8] -0.018 | [9] 0.038 | [10] -0.025 | [11] 0.012 | [12] -0.001 | [13] 0.017 | [14] 0.018 | [15] 0.011 | [16] 0.05 | [17] 0.005 | [18] -0.013 | [19] 0.003 | [20] -0.009
